Experimental data from ChEMBL document CHEMBL5674883, “The Heterochromatin Landscape in Migrating Cells and the Importance of H3K27me3 for Associated Transcriptome Alterations” (Cells, 2018).
Further values from the same series stand in other lists.

The chains behind the UniProt entries cited, without tags or fusion partners.
UniProt Q61188, whole entry: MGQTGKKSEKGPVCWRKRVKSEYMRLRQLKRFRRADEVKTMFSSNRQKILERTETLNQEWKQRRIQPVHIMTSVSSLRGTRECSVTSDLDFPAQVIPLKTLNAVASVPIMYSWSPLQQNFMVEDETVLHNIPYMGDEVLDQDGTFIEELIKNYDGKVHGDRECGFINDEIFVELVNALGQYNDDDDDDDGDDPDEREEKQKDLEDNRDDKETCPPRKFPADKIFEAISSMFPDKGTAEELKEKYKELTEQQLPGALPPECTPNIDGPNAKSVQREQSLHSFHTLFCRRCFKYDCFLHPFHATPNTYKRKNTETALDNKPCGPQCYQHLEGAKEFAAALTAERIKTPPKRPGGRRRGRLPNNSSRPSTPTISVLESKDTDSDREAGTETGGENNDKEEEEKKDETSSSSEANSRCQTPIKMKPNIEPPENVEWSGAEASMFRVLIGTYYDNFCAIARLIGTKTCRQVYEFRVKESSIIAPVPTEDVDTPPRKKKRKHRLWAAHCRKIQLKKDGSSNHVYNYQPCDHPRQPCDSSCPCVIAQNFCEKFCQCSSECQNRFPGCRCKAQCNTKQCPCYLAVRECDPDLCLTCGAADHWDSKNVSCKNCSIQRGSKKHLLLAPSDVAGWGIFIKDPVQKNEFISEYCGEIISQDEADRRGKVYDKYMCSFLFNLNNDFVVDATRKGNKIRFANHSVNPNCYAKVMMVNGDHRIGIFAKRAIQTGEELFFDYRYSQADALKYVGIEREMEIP

How the values were obtained:
Format in all cases: cell-based
[1] = target: Histone-lysine N-methyltransferase EZH2 (Mus musculus) (UniProt Q61188); experiment: Inhibition of EZH2 in mouse B16-F1 migrating cells assessed as fold change in H3K27me3-buffered regulated Trim8-mRNA expression at 3 uM measured by ChIP-seq analysis relative to control cells
[2] = target: Histone-lysine N-methyltransferase EZH2 (Mus musculus) (UniProt Q61188); experiment: Inhibition of EZH2 in mouse B16-F1 migrating cells assessed as fold change in H3K27me3-buffered regulated Lmna-mRNA expression at 3 uM measured by ChIP-seq analysis relative to control cells
[3] = target: Histone-lysine N-methyltransferase EZH2 (Mus musculus) (UniProt Q61188); experiment: Inhibition of EZH2 in mouse B16-F1 migrating cells assessed as fold change in H3K27me3-independent regulated Sfn-mRNA expression at 3 uM measured by ChIP-seq analysis relative to control cells
[4] = target: Histone-lysine N-methyltransferase EZH2 (Mus musculus) (UniProt Q61188); experiment: Inhibition of EZH2 in mouse B16-F1 migrating cells assessed as fold change in H3K27me3-buffered regulated Ccng2-mRNA expression at 3 uM measured by ChIP-seq analysis relative to control cells
[5] = target: Histone-lysine N-methyltransferase EZH2 (Mus musculus) (UniProt Q61188); experiment: Inhibition of EZH2 in mouse B16-F1 migrating cells assessed as fold change in H3K27me3-independent regulated Kdm3a-mRNA expression at 3 uM measured by ChIP-seq analysis relative to control cells
[6] = target: Histone-lysine N-methyltransferase EZH2 (Mus musculus) (UniProt Q61188); experiment: Inhibition of EZH2 in mouse B16-F1 migrating cells assessed as fold change in H3K27me3-buffered regulated Ssfa2-mRNA expression at 3 uM measured by ChIP-seq analysis relative to control cells
[7] = target: Histone-lysine N-methyltransferase EZH2 (Mus musculus) (UniProt Q61188); experiment: Inhibition of EZH2 in mouse B16-F1 migrating cells assessed as fold change in H3K27me3-buffered regulated Gm11478-mRNA expression at 3 uM measured by ChIP-seq analysis relative to control cells
[8] = target: Histone-lysine N-methyltransferase EZH2 (Mus musculus) (UniProt Q61188); experiment: Inhibition of EZH2 in mouse B16-F1 migrating cells assessed as fold change in H3K27me3-dependent regulated Klf4-mRNA expression at 3 uM measured by ChIP-seq analysis relative to control cells
[9] = target: Histone-lysine N-methyltransferase EZH2 (Mus musculus) (UniProt Q61188); experiment: Inhibition of EZH2 in mouse B16-F1 migrating cells assessed as fold change in H3K27me3-independent regulated Pfkp-mRNA expression at 3 uM measured by ChIP-seq analysis relative to control cells
[10] = target: Histone-lysine N-methyltransferase EZH2 (Mus musculus) (UniProt Q61188); experiment: Inhibition of EZH2 in mouse B16-F1 migrating cells assessed as fold change in H3K27me3-buffered regulated Rbms1-mRNA expression at 3 uM measured by ChIP-seq analysis relative to control cells
[11] = target: T1, RNA polymerase II (Mus musculus) (UniProt P08775+Q8CFI7+P97760+A0A3Q4L2S8+Q80UW8+P61219+P62488+Q923G2+P60898+O08740+Q63871+P62876); experiment: Inhibition of RNA polymerase II in mouse B16-F1 migrating cells assessed as fold change in Rpl24-RNA stability at 0.1 mM measured by ChIP-seq analysis relative to control cells
[12] = target: T1, RNA polymerase II (Mus musculus); experiment: Inhibition of RNA polymerase II in mouse B16-F1 migrating cells assessed as fold change in Pgls-RNA stability at 0.1 mM measured by ChIP-seq analysis relative to control cells
[13] = target: T1, RNA polymerase II (Mus musculus); experiment: Inhibition of RNA polymerase II in mouse B16-F1 migrating cells assessed as fold change in Npdc1-RNA stability at 0.1 mM measured by ChIP-seq analysis relative to control cells
[14] = target: T1, RNA polymerase II (Mus musculus); experiment: Inhibition of RNA polymerase II in mouse B16-F1 migrating cells assessed as fold change in Dctpp1-RNA stability at 0.1 mM measured by ChIP-seq analysis relative to control cells
[15] = target: T1, RNA polymerase II (Mus musculus); experiment: Inhibition of RNA polymerase II in mouse B16-F1 migrating cells assessed as fold change in Ak4-RNA stability at 0.1 mM measured by ChIP-seq analysis relative to control cells
[16] = target: T1, RNA polymerase II (Mus musculus); experiment: Inhibition of RNA polymerase II in mouse B16-F1 migrating cells assessed as fold change in Bbc3-RNA stability at 0.1 mM measured by ChIP-seq analysis relative to control cells
[17] = target: T1, RNA polymerase II (Mus musculus); experiment: Inhibition of RNA polymerase II in mouse B16-F1 migrating cells assessed as fold change in Rbm28-RNA stability at 0.1 mM measured by ChIP-seq analysis relative to control cells
[18] = target: T1, RNA polymerase II (Mus musculus); experiment: Inhibition of RNA polymerase II in mouse B16-F1 migrating cells assessed as fold change in Dtnbp1-RNA stability at 0.1 mM measured by ChIP-seq analysis relative to control cells
[19] = target: T1, RNA polymerase II (Mus musculus); experiment: Inhibition of RNA polymerase II in mouse B16-F1 migrating cells assessed as fold change in Dgcr6-RNA stability at 0.1 mM measured by ChIP-seq analysis relative to control cells
[20] = target: T1, RNA polymerase II (Mus musculus); experiment: Inhibition of RNA polymerase II in mouse B16-F1 migrating cells assessed as fold change in Ndfip2-RNA stability at 0.1 mM measured by ChIP-seq analysis relative to control cells
[21] = target: T1, RNA polymerase II (Mus musculus); experiment: Inhibition of RNA polymerase II in mouse B16-F1 migrating cells assessed as fold change in Lrp6-RNA stability at 0.1 mM measured by ChIP-seq analysis relative to control cells
[22] = target: T1, RNA polymerase II (Mus musculus); experiment: Inhibition of RNA polymerase II in mouse B16-F1 migrating cells assessed as fold change in Mapk8ip1-RNA stability at 0.1 mM measured by ChIP-seq analysis relative to control cells
[23] = target: T1, RNA polymerase II (Mus musculus); experiment: Inhibition of RNA polymerase II in mouse B16-F1 migrating cells assessed as fold change in Wdr83os-RNA stability at 0.1 mM measured by ChIP-seq analysis relative to control cells
[24] = target: T1, RNA polymerase II (Mus musculus); experiment: Inhibition of RNA polymerase II in mouse B16-F1 migrating cells assessed as fold change in Cenpq-RNA stability at 0.1 mM measured by ChIP-seq analysis relative to control cells
[25] = target: T1, RNA polymerase II (Mus musculus); experiment: Inhibition of RNA polymerase II in mouse B16-F1 migrating cells assessed as fold change in Adam9-RNA stability at 0.1 mM measured by ChIP-seq analysis relative to control cells
[26] = target: T1, RNA polymerase II (Mus musculus); experiment: Inhibition of RNA polymerase II in mouse B16-F1 migrating cells assessed as fold change in Kif15-RNA stability at 0.1 mM measured by ChIP-seq analysis relative to control cells
[27] = target: T1, RNA polymerase II (Mus musculus); experiment: Inhibition of RNA polymerase II in mouse B16-F1 migrating cells assessed as fold change in Synj2bp-RNA stability at 0.1 mM measured by ChIP-seq analysis relative to control cells
[28] = target: T1, RNA polymerase II (Mus musculus); experiment: Inhibition of RNA polymerase II in mouse B16-F1 migrating cells assessed as fold change in Ikbip-RNA stability at 0.1 mM measured by ChIP-seq analysis relative to control cells
[29] = target: T1, RNA polymerase II (Mus musculus); experiment: Inhibition of RNA polymerase II in mouse B16-F1 migrating cells assessed as fold change in Ap1ar-RNA stability at 0.1 mM measured by ChIP-seq analysis relative to control cells
[30] = target: T1, RNA polymerase II (Mus musculus); experiment: Inhibition of RNA polymerase II in mouse B16-F1 migrating cells assessed as fold change in Yif1a-RNA stability at 0.1 mM measured by ChIP-seq analysis relative to control cells

CCCc1cc(C)[nH]c(=O)c1CNC(=O)c1cc(-c2ccnc(N3CCN(C)CC3)c2)cc2c1cnn2C(C)C
log2FC [1]: -0.53 | log2FC [2]: 0.53 | log2FC [3]: 0.52 | log2FC [4]: -0.72 | log2FC [5]: -0.9 | log2FC [6]: -0.59 | log2FC [7]: 0.81 | log2FC [8]: 0.23 | log2FC [9]: 0.49 | log2FC [10]: -0.41

OC[C@H]1O[C@@H](n2cnc3cc(Cl)c(Cl)cc32)[C@H](O)[C@@H]1O
log2FC [11]: 0.57 | log2FC [12]: 0.63 | log2FC [13]: 0.46 | log2FC [14]: 0.41 | log2FC [15]: 0.54 | log2FC [16]: -0.86 | log2FC [17]: -0.46 | log2FC [18]: 0.43 | log2FC [19]: 0.54 | log2FC [20]: -0.39 | log2FC [21]: -0.46 | log2FC [22]: 0.57 | log2FC [23]: 0.43 | log2FC [24]: -0.63 | log2FC [25]: -0.62 | log2FC [26]: -1.07 | log2FC [27]: -0.62 | log2FC [28]: -0.44 | log2FC [29]: -0.46 | log2FC [30]: 0.44
